# Reference: patent US8614237B2, “Benzofuran-4,5-diones as selective peptide deformylase inhibitors” (Sloan-Kettering Institute for Cancer Research, priority 2009, dated 2013)
# For at least one compound, name, drawing or mass did not settle the structure.
# What was measured:
# [1] = test system: EcPDF
# [2] = test system: EcPDF; remark: listed apart in the source
SMILES,EcPDF %I 10uM [1] [%I],EcPDF %I 100uM [2] [%I]
"COc1ccc(C(=O)c2coc3c2C(=O)C(=O)C=C3)cc1 [SKC-BF-02, 3-(4-Methoxy-benzoyl)-benzofuran-4,5-dione]",1,24
"COc1ccc(C(=O)c2coc3c2C(=O)C(=O)C(Br)=C3)cc1 [SKC-BF-06, 6-Bromo-3-(4-methoxybenzoyl)-benzofuran-4,5-dione]",,5
"COc1ccc(C(=O)c2coc3c2C(=O)C(=O)C=C3Br)cc1 [SKC-BF-07, 7-Bromo-3-(4-methoxybenzoyl)-benzofuran-4,5-dione]",6,26
"COc1ccc(C(=O)c2coc3c2C(=O)C(=O)C(Br)=C3Br)cc1 [SKC-BF-08, 6,7-Dibromo-3-(4-methoxybenzoyl)-benzofuran-4,5-dione]",20,22
